Experimental data taken from publication PMC5309361.
These are yes or no findings as the source states them, for the method shown. In cells and extracts the contact can be indirect. Some results given as binding are weak or reduced against the parent protein; the word gives no strength.

Sequences of proteins named here, by UniProt entry; tags and fusion partners are left off. Residues count along the entry.
UniProt Q61056: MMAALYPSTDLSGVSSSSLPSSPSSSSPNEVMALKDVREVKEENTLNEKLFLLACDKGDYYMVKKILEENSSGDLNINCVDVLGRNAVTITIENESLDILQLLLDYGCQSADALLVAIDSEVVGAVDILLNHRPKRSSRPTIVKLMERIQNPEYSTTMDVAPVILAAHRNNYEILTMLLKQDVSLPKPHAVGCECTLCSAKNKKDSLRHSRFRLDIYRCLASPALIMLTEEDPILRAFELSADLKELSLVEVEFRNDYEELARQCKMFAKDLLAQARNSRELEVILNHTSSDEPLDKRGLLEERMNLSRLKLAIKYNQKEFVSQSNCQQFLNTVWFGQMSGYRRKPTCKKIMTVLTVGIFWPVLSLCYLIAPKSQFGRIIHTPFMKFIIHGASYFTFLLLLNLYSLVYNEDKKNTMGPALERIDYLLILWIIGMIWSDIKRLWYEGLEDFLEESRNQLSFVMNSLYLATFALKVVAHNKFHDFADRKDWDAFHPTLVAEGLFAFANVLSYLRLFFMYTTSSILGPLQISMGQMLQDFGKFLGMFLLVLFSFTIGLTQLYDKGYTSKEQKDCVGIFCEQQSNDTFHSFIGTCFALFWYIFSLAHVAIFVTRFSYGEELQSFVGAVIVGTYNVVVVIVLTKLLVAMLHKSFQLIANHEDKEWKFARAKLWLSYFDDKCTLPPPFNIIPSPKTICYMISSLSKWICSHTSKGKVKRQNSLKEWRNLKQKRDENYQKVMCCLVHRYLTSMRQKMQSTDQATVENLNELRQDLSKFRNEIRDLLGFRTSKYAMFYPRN
UniProt P70302, residues 23-685: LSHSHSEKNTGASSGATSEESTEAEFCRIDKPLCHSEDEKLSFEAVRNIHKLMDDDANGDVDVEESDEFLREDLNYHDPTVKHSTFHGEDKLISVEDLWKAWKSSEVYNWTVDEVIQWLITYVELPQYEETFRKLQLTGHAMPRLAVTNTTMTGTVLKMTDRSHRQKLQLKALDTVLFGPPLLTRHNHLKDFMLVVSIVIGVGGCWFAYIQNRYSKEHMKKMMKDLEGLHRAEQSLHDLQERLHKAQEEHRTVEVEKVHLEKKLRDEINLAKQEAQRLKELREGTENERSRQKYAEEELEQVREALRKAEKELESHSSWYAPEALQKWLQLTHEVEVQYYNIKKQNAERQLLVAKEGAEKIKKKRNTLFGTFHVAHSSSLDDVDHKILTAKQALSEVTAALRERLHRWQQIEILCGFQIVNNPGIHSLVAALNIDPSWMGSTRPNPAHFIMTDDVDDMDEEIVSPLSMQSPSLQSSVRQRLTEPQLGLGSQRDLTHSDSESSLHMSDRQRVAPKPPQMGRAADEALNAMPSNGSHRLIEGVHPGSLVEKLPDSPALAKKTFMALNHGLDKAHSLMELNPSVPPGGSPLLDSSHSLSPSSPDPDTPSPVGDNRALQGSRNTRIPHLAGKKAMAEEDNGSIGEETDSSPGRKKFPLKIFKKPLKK

How the values were obtained:
[1] = target: canonical transient receptor potential channel 1 (TRPC1), mouse (mouse (endogenous in mesenteric artery VSMCs)) (UniProt Q61056); test: proximity ligation; Duolink in situ PLA on fixed, Triton-permeabilised WT mouse mesenteric artery VSMCs, unstimulated
[2] = target: canonical transient receptor potential channel 1 (TRPC1), mouse (mouse (endogenous in mesenteric artery VSMCs)) (UniProt Q61056); test: co-IP; primary cultured WT mouse mesenteric artery VSMC lysates, BAPTA-AM; precipitating antibody not given
[3] = target: canonical transient receptor potential channel 1 (TRPC1), mouse (mouse (endogenous in mesenteric artery VSMCs)) (UniProt Q61056); test: proximity ligation; Duolink in situ PLA on fixed, Triton-permeabilised WT mouse mesenteric artery VSMCs treated with BAPTA-AM for 10 min or noradrenaline for 5 min

## stromal interaction molecule 1 (STIM1), mouse (from UniProt P70302 23-685)
[1]
  binding: no binding (condition: unstimulated cells (no BAPTA-AM))
[2]
  binding: binds
[3]
  binding: binds
